Assay results taken from the supplement of paper PMC7238544.
Structures can show the parent of a compound that is named as a salt. ± gives the standard deviation of the averaged measurements. This is one part of the list. The data scatter; read single values as rough.

Legend:
hAMSC donor 1 [1] = assay: Hoechst total cell count ratio vs vehicle control; higher = more cells (less toxicity)
hAMSC donor 2 [2] = assay: as above
hAMSC donor 1 [3] = assay: transgenic luciferase activity (RLU/mg protein) fold change vs vehicle control (ratio); higher = more transgene expression
hAMSC donor 2 [4] = assay: as above
hAMSC donor 1 [5] = assay: transfection efficiency (EGFP+ cells / Hoechst count) fold change vs vehicle control (ratio); hAMSC are human adipose-derived mesenchymal stem cells given an EGFP-luciferase plasmid by lipofection; higher = enhanced transfection
hAMSC donor 2 [6] = assay: as above
[7] = priming compound concentration 0.2 µM
[8] = priming compound concentration 1.7 µM
[9] = priming compound concentration 13 µM

| Compound | Hoechst total cell count ratio (hAMSC donor 1 [1]; [7]) | Hoechst total cell count ratio (hAMSC donor 1 [1]; [8]) | Hoechst total cell count ratio (hAMSC donor 1 [1]; [9]) | Hoechst total cell count ratio (hAMSC donor 2 [2]; [7]) | Hoechst total cell count ratio (hAMSC donor 2 [2]; [8]) | Hoechst total cell count ratio (hAMSC donor 2 [2]; [9]) | transgenic luciferase activity (hAMSC donor 1 [3]; [7]) | transgenic luciferase activity (hAMSC donor 1 [3]; [8]) | transgenic luciferase activity (hAMSC donor 1 [3]; [9]) | transgenic luciferase activity (hAMSC donor 2 [4]; [7]) | transgenic luciferase activity (hAMSC donor 2 [4]; [8]) | transgenic luciferase activity (hAMSC donor 2 [4]; [9]) | transfection efficiency (hAMSC donor 1 [5]; [7]) | transfection efficiency (hAMSC donor 1 [5]; [8]) | transfection efficiency (hAMSC donor 1 [5]; [9]) | transfection efficiency (hAMSC donor 2 [6]; [7]) | transfection efficiency (hAMSC donor 2 [6]; [8]) | transfection efficiency (hAMSC donor 2 [6]; [9]) |
| --- | --- | --- | --- | --- | --- | --- | --- | --- | --- | --- | --- | --- | --- | --- | --- | --- | --- | --- |
| COc1cc2nc(N3CCN(C(=O)c4ccco4)CC3)nc(N)c2cc1OC [Prazosin hydrochloride hydrate] | 1.39 ± 0.42 | 1.39 ± 0.057 | 0.986 ± 0.092 | 1.2 ± 0.36 | 1.01 ± 0.14 | 0.515 ± 0.061 | 0.541 ± 0.24 | 0.961 ± 0.26 | 0.28 ± 0.21 | 0.233 ± 0.26 | 0.784 ± 0.057 | 0.579 ± 0.29 | 1.23 ± 0.59 | 0.838 ± 0.2 | 1.17 ± 0.22 | 0.96 ± 0.12 | 1.03 ± 0.059 | 1.19 ± 0.24 |
| CC(C)(O)c1ccccc1CC[C@@H](SCC1(CC(=O)O)CC1)c1cccc(/C=C/c2ccc3ccc(Cl)cc3n2)c1 [Montelukast sodium] | 1.26 ± 0.086 | 1.28 ± 0.065 | 1.14 ± 0.027 | 1.32 ± 0.19 | 1.22 ± 0.03 | 1.5 ± 0.27 | 0.881 ± 0.13 | 0.673 ± 0.17 | 1.07 ± 0.15 | 0.755 ± 0.34 | 0.923 ± 0.14 | 1.37 ± 0.22 | 1.01 ± 0.23 | 1.68 ± 0.73 | 0.791 ± 0.3 | 0.855 ± 0.16 | 1 ± 0.071 | 1.05 ± 0.28 |
| CNCCCCOc1ccccc1Cc1ccccc1 [Bifemelane hydrochloride] | 1.05 ± 0.25 | 1.17 ± 0.098 | 1.18 ± 0.029 | 1.24 ± 0.34 | 1.06 ± 0.14 | 0.963 ± 0.078 | 0.949 ± 0.12 | 1.05 ± 0.28 | 0.123 ± 0.05 | 0.508 ± 0.23 | 0.656 ± 0.03 | 0.606 ± 0.091 | 1.15 ± 0.19 | 1.15 ± 0.28 | 0.641 ± 0.19 | 1.17 ± 0.32 | 0.997 ± 0.1 | 0.868 ± 0.25 |
| Cc1cccc(C)c1OCC(C)N (stereo unspecified) [Mexiletine hydrochloride] | 1.04 ± 0.017 | 0.964 ± 0.054 | 0.984 ± 0.084 | 0.929 ± 0.12 | 0.925 ± 0.12 | 1.33 ± 0.33 | 0.581 ± 0.15 | 1.2 ± 0.42 | 1.31 ± 0.53 | 0.562 ± 0.18 | 1.17 ± 0.12 | 0.68 ± 0.4 | 1.1 ± 0.28 | 1.87 ± 0.06 | 1.31 ± 0.61 | 1.11 ± 0.15 | 1.26 ± 0.3 | 1.14 ± 0.18 |
| O=C(O)/C=C/c1ccc(Cn2ccnc2)cc1 [Ozagrel hydrochloride] | 1.14 ± 0.17 | 1.39 ± 0.058 | 1.15 ± 0.22 | 1.54 ± 0.15 | 0.998 ± 0.036 | 0.998 ± 0.071 | 0.317 ± 0.1 | 0.951 ± 0.33 | 0.169 ± 0.18 | 0.597 ± 0.2 | 0.688 ± 0.094 | 1.3 ± 0.74 | 1.25 ± 0.31 | 0.99 ± 0.21 | 1.19 ± 0.084 | 0.893 ± 0.29 | 1.06 ± 0.043 | 1.24 ± 0.2 |
| Cc1ccc(NC(=O)c2ccc(CN3CCN(C)CC3)cc2)cc1Nc1nccc(-c2cccnc2)n1 [Imatinib mesylate] | 0.874 ± 0.31 | 0.919 ± 0.043 | 0.903 ± 0.068 | 1.16 ± 0.25 | 0.937 ± 0.049 | 0.756 ± 0.055 | 0.838 ± 0.4 | 1.18 ± 1.1 | 0.313 ± 0.1 | 0.732 ± 0.12 | 0.353 ± 0.042 | 0.632 ± 0.054 | 1.42 ± 0.56 | 0.936 ± 0.31 | 0.556 ± 0.12 | 0.93 ± 0.2 | 0.923 ± 0.1 | 0.827 ± 0.083 |
| CN1CCCC(n2nc(Cc3ccc(Cl)cc3)c3ccccc3c2=O)CC1 (stereo unspecified) [Azelastine hydrochloride] | 1.24 ± 0.024 | 1.21 ± 0.16 | 1.14 ± 0.028 | 1.19 ± 0.17 | 1.04 ± 0.046 | 1.86 ± 0.2 | 0.714 ± 0.12 | 0.746 ± 0.29 | 1.6 ± 1.6 | 0.693 ± 0.14 | 1 ± 0.43 | 0.677 ± 0.14 | 1.25 ± 0.29 | 1.16 ± 0.45 | 0.684 ± 0.29 | 0.77 ± 0.16 | 1.02 ± 0.08 | 0.641 ± 0.077 |
| CC(C)(C)NC(=O)[C@@H]1CN(Cc2cccnc2)CCN1C[C@@H](O)C[C@@H](Cc1ccccc1)C(=O)N[C@H]1c2ccccc2C[C@H]1O [Indinavir sulfate] | 0.972 ± 0.3 | 1.39 ± 0.062 | 1.15 ± 0.23 | 1.08 ± 0.47 | 1.11 ± 0.2 | 1.08 ± 0.021 | 1.1 ± 0.49 | 1.36 ± 0.42 | 1.1 ± 1.2 | 1.17 ± 0.56 | 0.408 ± 0.024 | 0.527 ± 0.045 | 1.09 ± 0.22 | 1.01 ± 0.13 | 1.35 ± 0.7 | 0.983 ± 0.082 | 1.14 ± 0.21 | 1.06 ± 0.051 |
| O=c1ncc(F)c[nH]1 [5-Fluoro-2-pyrimidone] | 0.987 ± 0.15 | 1.25 ± 0.26 | 1.26 ± 0.23 | 1.28 ± 0.16 | 1.03 ± 0.025 | 1.04 ± 0.075 | 1.01 ± 0.35 | 1.76 ± 1.6 | 0.141 ± 0.043 | 0.605 ± 0.086 | 0.787 ± 0.17 | 0.344 ± 0.31 | 0.966 ± 0.32 | 1.15 ± 0.27 | 0.828 ± 0.17 | 1.11 ± 0.15 | 1.02 ± 0.037 | 1.08 ± 0.12 |
| CCC(=O)O[C@]1(C(=O)SCF)[C@H](C)C[C@H]2[C@@H]3C[C@H](F)C4=CC(=O)C=C[C@]4(C)[C@@]3(F)[C@@H](O)C[C@@]21C [Fluticasone propionate] | 1.23 ± 0.11 | 1.22 ± 0.067 | 1.03 ± 0.097 | 1.86 ± 0.1 | 0.901 ± 0.023 | 0.783 ± 0.05 | 12.3 ± 4.7 | 8.39 ± 1.6 | 4.38 ± 0.78 | 4.49 ± 1.2 | 3.47 ± 0.12 | 4.63 ± 0.49 | 2.66 ± 0.67 | 1.7 ± 0.32 | 1.99 ± 0.52 | 1.51 ± 0.17 | 2.59 ± 0.26 | 2.27 ± 0.35 |
| CCCCC[C@H](O)/C=C/[C@H]1[C@H](O)CC(=O)[C@@H]1CCCCCCC(=O)O [Prostaglandin E1] | 1.14 ± 0.098 | 1.31 ± 0.17 | 1.29 ± 0.084 | 1.2 ± 0.15 | 1.02 ± 0.12 | 1.6 ± 0.042 | 0.551 ± 0.04 | 1.13 ± 0.31 | 1.5 ± 0.24 | 0.525 ± 0.24 | 0.974 ± 0.18 | 1.08 ± 0.17 | 0.937 ± 0.2 | 1.68 ± 0.47 | 0.776 ± 0.17 | 0.953 ± 0.22 | 1.17 ± 0.37 | 0.991 ± 0.028 |
| O=C(N[C@H](CO)[C@H](O)c1ccc([N+](=O)[O-])cc1)C(Cl)Cl [Chloramphenicol] | 1.27 ± 0.13 | 1.24 ± 0.14 | 1.21 ± 0.03 | 0.919 ± 0.091 | 0.993 ± 0.082 | 1.52 ± 0.1 | 1.63 ± 0.83 | 1.32 ± 0.66 | 2.11 ± 0.92 | 0.936 ± 0.68 | 0.762 ± 0.088 | 1.48 ± 0.21 | 1.14 ± 0.37 | 0.848 ± 0.24 | 1.67 ± 0.93 | 1.28 ± 0.47 | 0.982 ± 0.11 | 1.04 ± 0.14 |
